Measurements published in patent publication US10669588B2, “Methods for sub-typing and treating cancer” (HI-STEM GGMBH im Deutschen, priority 2014, dated 2020).
For at least one compound, name, drawing or mass did not settle the structure.

Columns and labels:
[1] = test system: exocrine-like PACO cells; format: cell-based, human
Experimental: (§1) Quantitative results were analyzed by one-way analysis of variance (multiple groups/grouped analysis) and Student's t test (two groups), using GraphPad Prism (Graph Pad Software). Survival analysis was performed using Mantel-Cox log-rank test as well as Cox proportional hazards multivariate analysis using the Statistical Package for the Social Sciences (IPM SPSS software). Additionally, Pearson chi-squared test was used for comparative data analysis, using SPSS. We considered p<0.05 (two-sided) as statistically significant. For GSEA a False Discovery Rate (FDR) of <0.2 was considered statistically significant. Treatment data were evaluated by determining the activity area (Barretina et al., 2012) from each dose response curve by adding max (100-mean response, 0) for every concentration. Activity areas from the same biological replicate were compared by paired t-test. Calculations were performed in R Version 3.1.0 (Chee et al., 2013).

[2] = test system: classical and QM-PDA PACO cells; test: Drug treatment assay, relative cell viability (CellTiterBlue); format: cell-based, human
Experimental: as §1

[3] = test system: drug-resistant sublines of classical (PACO2) and QM-PDA (PACO7) cells; test: Drug sensitivity of drug-resistant sublines from 8-week treatment; conditions: PACO2, PACO7 treated with increasing doses over 8 weeks; vs DMSO-control treated parental lines

## Cc1nc(Nc2ncc(C(=O)Nc3c(C)cccc3Cl)s2)cc(N2CCN(CCO)CC2)n1 [dasatinib]
[1]; exocrine-like (PACO14), 100 nM ketoconazole pre-treatment for 2 hours vs vehicle, 48 hours
  drug sensitivity after ketoconazole pre-treatment (relative cell viability, activity area): significantly more sensitive
[1]; exocrine-like subtype PACO lines, 1 μM or 10 μM, after 48 hours
  drug sensitivity (relative cell viability): almost completely resistant
[2]; QM-PDA (PACO9) and classical (PACO2), 100 nM ketoconazole pre-treatment for 2 hours vs vehicle, 48 hours
  drug sensitivity after ketoconazole pre-treatment (relative cell viability, activity area): remained unchanged
[2]; classical and QM-PDA subtype PACO lines, 1 μM or 10 μM, after 48 hours
  drug sensitivity (relative cell viability): sensitive
[3]
  resistance of sublines to the drug used for long-term treatment: significantly higher resistance
